The name of at least one read-out is uncertain. Where a SMILES comes first, the peptide text is derived from it. [ ]: non-standard residue; d: D form. The star is where a group is joined. cisHyp = O=C(O)[C@@H]1C[C@H](O)CN1; NMeL = CN[C@@H](CC(C)C)C(=O)O; NMeV = CN[C@H](C(=O)O)C(C)C; Octanoyl = CCCCCCCC(=O)*
Tested on: Allergic Human Purified Peripheral Blood Eosinophils
Experiment: Percent eosinophil apoptosis (Annexin V-FITC, flow cytometry) in allergic human purified peripheral blood eosinophils
Type: cell-based
Conditions: 10 μg/mL test compound, IL-5 (50 pM), 18 hr incubation
Procedure: Percent Eosinophil Apoptosis in Allergic Human Purified Peripheral Blood Eosinophils
Aliquots were removed after 18 hr incubation, washed twice in PBS, and resuspended in binding buffer. The eosinophil cells were stained using the Annexin V-FITC Apoptosis Detection Kit I, (Sigma Aldrich) and immediately analyzed by flow cytometry. Each sample was acquired for 1 min, and the total number of eosinophils gated on a forward scatter/side scatter plot and the percentage of live cells (annexin Vneg) and apoptotic cells (annexin Vpos) was recorded.

Compound | Total percent live and apoptotic EO cells [%]
CC(C)C[C@@H](C(=O)N[C@H](C(=O)N(C)[C@H](C(=O)N1C[C@@H](O)C[C@H]1C(=O)N1C(=O)C=C[C@@H]1C)C(C)C)C(C)O)N(C)C(=O)C1CCCCC1 (some centres unmarked) [Compound 13a] | 95.3
CCCCCCCC(=O)N(C)[C@@H](CC(C)C)C(=O)N[C@@H](COC(C)=O)C(=O)N(C)[C@H](C(=O)N1C[C@@H](O)C[C@H]1C(=O)OC)C(C)C [Compound 17a] (Octanoyl-[NMeL]S(Ac)[NMeV][cisHyp]-OMe) | 98.7
